Values of other authors in PMC3956856, “Interaction of Kinase-Interaction-Motif Protein Tyrosine Phosphatases with the Mitogen-Activated Protein Kinase ERK2” (PLoS ONE, 2014).

System: p38α
Conditions: resting-state complex, SAXS; ref [14], [15]; cited from earlier work

Molecule	shape of the complex with p38α (in words)
STEP (residues 213-539, mouse) (domain or fragment, UniProt P54830 213-539, looked up, STEP (PTPN5, striatal enriched protein tyrosine phosphatase), mouse, residues 213-539 (KIM, KIS and catalytic domain); The results loosely call this construct 'full-length STEP'; the construct is residues 213-539; also called STEP_(213-539); PTPN5; source: final SEC) MGLQERRGSNVSLTLDMCTPGCNEEGFGYLVSPREESAHEYLLSASRVLRAEELHEKALDPFLLQAEFFEIPMNFVDPKEYDIPGLVRKNRYKTILPNPHSRVRLTSPDPEDPLSSYINANYIRGYSGEEKVYIATQGPIVSTVADFWRMVWQERTPIIVMITNIEEMNEKCTEYWPEEQVVHDGVEITVQKVIHTEDYRLRLISLRRGTEERSLKHYWFTSWPDQKTPDRAPPLLHLVREVEEAAQQEGPHCSPIIVHCSAGIGRTGCFIATSICCQQLRREGVVDILKTTCQLRQDRGGMIQTCEQYQFVHHAMSLYEKQLSLQS	compact
HePTP: HePTP (residues 15–339), hematopoietic protein tyrosine phosphatase (protein, UniProt P35236 15-339, looked up, fragment) TLSLGAAMTQPPPEKTPAKKHVRLQERRGSNVALMLDVRSLGAVEPICSVNTPREVTLHFLRTAGHPLTRWALQRQPPSPKQLEEEFLKIPSNFVSPEDLDIPGHASKDRYKTILPNPQSRVCLGRAQSQEDGDYINANYIRGYDGKEKVYIATQGPMPNTVSDFWEMVWQEEVSLIVMLTQLREGKEKCVHYWPTEEETYGPFQIRIQDMKECPEYTVRQLTIQYQEERRSVKHILFSAWPDHQTPESAGPLLRLVAEVEESPETAAHPGPIVVHCSAGIGRTGCFIATRIGCQQLKARGEVDILGIVCQLRLDRGGMIQTAEQ	extended
PTPSL (residues 332-655, human) (domain or fragment, UniProt Q15256 332-655, looked up, PTPSL/PTPBR7 (PTPRR, PTP STEP-like), human, residues 332-655 (KIM, KIS and catalytic domain); The results loosely call this construct 'full-length PTPSL'; the construct is residues 332-655; also called PTPBR7; PTPRR; source: final SEC) GLQERRGSNVSLTLDMSSLGNIEPFVSIPTPREKVAMEYLQSASRILTRSQLRDVVASSHLLQSEFMEIPMNFVDPKEIDIPRHGTKNRYKTILPNPLSRVCLRPKNVTDSLSTYINANYIRGYSGKEKAFIATQGPMINTVDDFWQMVWQEDSPVIVMITKLKEKNEKCVLYWPEKRGIYGKVEVLVISVNECDNYTIRNLVLKQGSHTQHVKHYWYTSWPDHKTPDSAQPLLQLMLDVEEDRLASQGRGPVVVHCSAGIGRTGCFIATSIGCQQLKEEGVVDALSIVCQLRMDRGGMVQTSEQYEFVHHALCLYESRLSAET	extended in solution
